PubChem BioAssay AID504793, Drosophila RNAi Screening Center | 2011

Assay: 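Genes required for cells to halt at G2/M after double-strand DNA breaks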 (primary screen)
Cell system: Drosophila S2R+ cells
Reagent: long dsRNA against Drosophila genes, about 0.25 µg dsRNA per well
Duration: 4 days of dsRNA, then 4 hours of drug before read-out
Challenge: doxorubicin 0.5 µM for 4 hours to cause double-strand breaks, in cells also given a low, harmless dose of dsRNA against nbs to sensitise the assay
Detection: 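Mitotic index as the number of phospho-histone H3-positive cells in each well following doxorubicin, given as raw counts without normalisation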
Reading the numbers: mitotic cells: higher = more cells in mitosis, weaker G2 arrest
Call rule: 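a call needs confirmation in secondary tests, with other dsRNAs and a check of mitotic timing without damage, not just a high primary count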
Meaning of the calls: active = confirmed in follow-up tests; inactive = not confirmed
The deposit covers about 23,000 reagents; below is an unselected part of those that have a named target and a result. Over the whole deposit, 62 (0.27%) got an active call. 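Calls come from follow-up tests whose scores are not deposited, so confirmed genes may have low counts here; counts are not normalised per plate.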 The raw values are shown without normalisation.

| Target gene | amplicon | mitotic cells, replicate 1 | Outcome |
| --- | --- | --- | --- |
| AsnS | DRSC11468 | 10 | inactive |
| CG7556 | DRSC20052 | 10 | inactive |
| CG7556 | DRSC26701 | 8 | inactive |
| CG15036 | DRSC17968 | 5 | inactive |
| CG15036 | DRSC26078 | 2 | inactive |
| CG34176 | DRSC00435 | 2 | inactive |
| Mur89F | DRSC15544 | 6 | inactive |
| Mur89F | DRSC25291 | 5 | inactive |
| Ndf | DRSC02775 | 6 | inactive |
| CG6660 | DRSC16087 | 8 | inactive |
| spn-E | DRSC17064 | 5 | inactive |
| Trm7-32 | DRSC15741 | 2 | inactive |
| CG3699 | DRSC18171 | 8 | inactive |
| CG3699 | DRSC18642 | 15 | inactive |
| CG16799 | DRSC06626 | 4 | inactive |
| CG16799 | DRSC21553 | 10 | inactive |
| Inx5 | DRSC20051 | 5 | inactive |
| CG32437 | DRSC11760 | 3 | inactive |
| CG32437 | DRSC22020 | 16 | inactive |
| CG32437 | DRSC27187 | 9 | inactive |
| CG7164 | DRSC03018 | 7 | inactive |
| CG7164 | DRSC28704 | 2 | inactive |
| Trmt6 | DRSC03272 | 8 | inactive |
| kibra | DRSC14533 | 9 | inactive |
| kibra | DRSC23283 | 9 | inactive |
| kibra | DRSC29376 | 5 | inactive |
| SF1 | DRSC16844 | 15 | inactive |
| Daao1 | DRSC06131 | 4 | inactive |
| bnl | DRSC13377 | 5 | inactive |
| bnl | DRSC23212 | 8 | inactive |
| bnl | DRSC29056 | 6 | inactive |
| yip3 | DRSC04724 | 4 | inactive |
| CG10232 | DRSC14218 | – | inactive |
| Qsox3 | DRSC16096 | 11 | inactive |
| btn | DRSC26486 | 6 | inactive |
| Phlpp | DRSC02065 | 6 | inactive |
| Phlpp | DRSC22808 | 6 | inactive |
| CG18476 | DRSC15281 | 7 | inactive |
| CG33467 | DRSC05525 | 3 | inactive |
| CG33467 | DRSC22651 | 9 | inactive |
| Crz | DRSC16615 | 3 | inactive |
| z | DRSC23134 | 14 | inactive |
| CG31635 | DRSC02273 | 8 | inactive |
| CG6094 | DRSC02927 | 8 | inactive |
| CG6094 | DRSC22705 | 8 | inactive |
| CG6094 | DRSC29084 | 2 | inactive |
| robl37BC | DRSC02472 | 3 | inactive |
| Pdrg1 | DRSC28485 | 10 | inactive |
| IntS14 | DRSC00668 | 3 | inactive |
| CG7565 | DRSC10881 | 6 | inactive |
| CG8925 | DRSC16455 | 4 | inactive |
| CG8925 | DRSC16456 | 6 | inactive |
| CG8925 | DRSC16457 | 2 | inactive |
| Usp39 | DRSC20032 | 6 | inactive |
| Usp39 | DRSC29836 | 2 | inactive |
| CG12883 | DRSC14570 | 11 | inactive |
| CG12883 | DRSC27305 | 2 | inactive |
| CG17751 | DRSC15261 | 11 | inactive |
| CG17751 | DRSC22837 | 3 | inactive |
| CG17751 | DRSC24497 | 3 | inactive |
| grh | DRSC05680 | 25 | inactive |
| grh | DRSC05683 | 10 | inactive |
| grh | DRSC07624 | 7 | inactive |
| grh | DRSC07625 | 9 | inactive |
| grh | DRSC25041 | 4 | inactive |
| grh | DRSC39163 | 7 | inactive |
| CG30385 | DRSC06031 | 7 | inactive |
| CG34056 | DRSC08374 | 7 | inactive |
| Task7 | DRSC16477 | 10 | inactive |
| Task7 | DRSC26662 | 9 | inactive |
| CG7601 | DRSC14131 | 9 | inactive |
| CG7606 | DRSC16268 | 6 | inactive |
| Gale | DRSC08234 | 6 | inactive |
| Zcchc7 | DRSC11099 | 8 | inactive |
| Zcchc7 | DRSC25470 | 5 | inactive |
| CG5953 | DRSC01546 | 4 | inactive |
| CG5953 | DRSC28725 | 3 | inactive |
| Tmem43 | DRSC10964 | 5 | inactive |
| Tmem43 | DRSC26177 | 7 | inactive |
| gfzf | DRSC12506 | 9 | active |
| gfzf | DRSC21874 | 7 | active |
| CycE | DRSC03295 | 5 | inactive |
| CycE | DRSC03296 | 4 | inactive |
| CG14275 | DRSC02379 | 7 | inactive |
| CG14275 | DRSC27588 | 3 | inactive |
| btl | DRSC11331 | 6 | inactive |
| btl | DRSC36653 | 7 | inactive |
| jumu | DRSC16651 | 5 | inactive |
| Reepl1 | DRSC19418 | 4 | inactive |
| Reepl1 | DRSC26698 | 8 | inactive |
| CG31301 | DRSC22164 | 11 | inactive |
| CG31019 | DRSC13994 | 4 | inactive |
| CG31019 | DRSC26555 | 5 | inactive |
| Mlc2 | DRSC16741 | 6 | inactive |
| Mlc2 | DRSC28878 | 10 | inactive |
| POSH | DRSC07499 | 9 | inactive |
| CG30159 | DRSC04981 | 5 | inactive |
| CG30159 | DRSC26683 | 8 | inactive |
| CG12986 | DRSC19506 | 11 | inactive |
| CG10866 | DRSC08171 | 9 | inactive |
| CG10866 | DRSC29672 | 6 | inactive |
| CG4935 | DRSC01924 | 3 | inactive |
| CG12439 | DRSC02168 | 5 | inactive |
| CG2336 | DRSC12581 | 12 | inactive |
| CG14357 | DRSC14820 | 2 | inactive |
| CG14357 | DRSC28685 | 8 | inactive |
| Prosalpha6 | DRSC03401 | 62 | inactive |
| CG7135 | DRSC20026 | 12 | inactive |
| CG7135 | DRSC29942 | 8 | inactive |
| CG3687 | DRSC06850 | 11 | inactive |
| CG3687 | DRSC29588 | 4 | inactive |
| RhoGAP68F | DRSC10717 | 8 | inactive |
| fon | DRSC02507 | 2 | inactive |
| CG4045 | DRSC18518 | 5 | inactive |
| trpl | DRSC06728 | 9 | inactive |
| trpl | DRSC06729 | 7 | inactive |
| trpl | DRSC25485 | 3 | inactive |
| CG30172 | DRSC21519 | 10 | inactive |
| CG30172 | DRSC30069 | 1 | inactive |
| FarO | DRSC18475 | 15 | inactive |
| CG17258 | DRSC00495 | 7 | inactive |
| CG17258 | DRSC22709 | 7 | inactive |
| CG17258 | DRSC28524 | 2 | inactive |
| CG17633 | DRSC02631 | 7 | inactive |
| CG17633 | DRSC29709 | 7 | inactive |
| CG6834 | DRSC16125 | 5 | inactive |
| CG6834 | DRSC29321 | 10 | inactive |
| hydra | DRSC20497 | 3 | inactive |
| ppk25 | DRSC04973 | 1 | inactive |
| ppk25 | DRSC27513 | 5 | inactive |
| Dh44-R1 | DRSC07172 | 11 | inactive |
| Dh44-R1 | DRSC28984 | 4 | inactive |
| CG13791 (retired record) | DRSC02295 | 4 | inactive |
| CG13991 | DRSC02323 | 9 | inactive |
| ND-ASHI | DRSC18291 | 5 | inactive |
| ND-ASHI | DRSC27165 | 4 | inactive |
| Or67c | DRSC11242 | 3 | inactive |
| CG13659 | DRSC14660 | 5 | inactive |
| CG13659 | DRSC29383 | 3 | inactive |
| obst-J | DRSC10821 | 5 | inactive |
| obst-J | DRSC28354 | 6 | inactive |
